The results in this text go back to article PMC4148960.

Amino acid sequences for entries named in this document (tags omitted).
UniProt Q62440: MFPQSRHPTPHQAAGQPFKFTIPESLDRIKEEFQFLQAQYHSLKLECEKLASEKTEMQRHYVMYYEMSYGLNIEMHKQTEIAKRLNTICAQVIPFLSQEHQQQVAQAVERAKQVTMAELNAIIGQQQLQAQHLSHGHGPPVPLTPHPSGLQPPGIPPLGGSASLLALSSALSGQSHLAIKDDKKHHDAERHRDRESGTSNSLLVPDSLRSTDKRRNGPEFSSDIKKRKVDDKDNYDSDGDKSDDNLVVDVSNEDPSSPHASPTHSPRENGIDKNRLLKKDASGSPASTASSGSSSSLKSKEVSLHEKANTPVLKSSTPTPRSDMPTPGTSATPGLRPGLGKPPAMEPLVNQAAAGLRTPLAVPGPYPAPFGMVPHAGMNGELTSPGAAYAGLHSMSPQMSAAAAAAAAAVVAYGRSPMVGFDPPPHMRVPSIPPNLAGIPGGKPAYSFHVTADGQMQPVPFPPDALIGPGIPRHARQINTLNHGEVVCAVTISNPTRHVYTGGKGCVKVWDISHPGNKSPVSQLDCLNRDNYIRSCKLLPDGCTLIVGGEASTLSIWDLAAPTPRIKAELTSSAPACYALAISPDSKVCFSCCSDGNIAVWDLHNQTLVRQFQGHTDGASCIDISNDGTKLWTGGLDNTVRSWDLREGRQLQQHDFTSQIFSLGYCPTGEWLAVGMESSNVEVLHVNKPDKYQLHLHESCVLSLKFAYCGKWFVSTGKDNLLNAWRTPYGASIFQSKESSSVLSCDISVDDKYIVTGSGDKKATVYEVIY
UniProt Q08122: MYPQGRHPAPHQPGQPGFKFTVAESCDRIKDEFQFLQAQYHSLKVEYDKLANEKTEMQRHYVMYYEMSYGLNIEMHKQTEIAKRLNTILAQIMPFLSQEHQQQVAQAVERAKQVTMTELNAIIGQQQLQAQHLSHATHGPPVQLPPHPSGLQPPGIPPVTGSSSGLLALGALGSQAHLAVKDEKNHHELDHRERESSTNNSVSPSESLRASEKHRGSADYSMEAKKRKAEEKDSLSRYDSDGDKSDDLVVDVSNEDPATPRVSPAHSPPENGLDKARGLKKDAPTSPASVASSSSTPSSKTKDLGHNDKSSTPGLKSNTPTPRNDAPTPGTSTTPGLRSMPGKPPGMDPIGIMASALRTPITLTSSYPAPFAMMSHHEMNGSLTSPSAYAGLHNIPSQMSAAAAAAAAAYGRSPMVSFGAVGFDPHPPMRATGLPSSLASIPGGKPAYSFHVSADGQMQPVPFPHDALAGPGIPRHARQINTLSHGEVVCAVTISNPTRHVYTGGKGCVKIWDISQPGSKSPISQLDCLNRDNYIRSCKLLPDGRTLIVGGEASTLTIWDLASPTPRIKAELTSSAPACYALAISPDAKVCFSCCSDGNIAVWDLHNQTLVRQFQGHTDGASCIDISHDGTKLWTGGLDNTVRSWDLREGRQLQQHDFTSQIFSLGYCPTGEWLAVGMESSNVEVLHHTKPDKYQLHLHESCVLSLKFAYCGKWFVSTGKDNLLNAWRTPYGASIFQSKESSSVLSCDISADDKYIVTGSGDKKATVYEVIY
UniProt P48432: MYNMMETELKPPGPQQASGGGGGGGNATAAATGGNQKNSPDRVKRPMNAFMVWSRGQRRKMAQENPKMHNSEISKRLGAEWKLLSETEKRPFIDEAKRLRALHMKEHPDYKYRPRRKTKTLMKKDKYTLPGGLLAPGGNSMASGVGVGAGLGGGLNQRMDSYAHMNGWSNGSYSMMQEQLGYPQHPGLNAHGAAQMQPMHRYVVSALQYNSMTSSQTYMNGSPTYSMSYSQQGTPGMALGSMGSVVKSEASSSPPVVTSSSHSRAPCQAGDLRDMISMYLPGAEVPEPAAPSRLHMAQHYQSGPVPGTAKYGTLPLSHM
UniProt P48431: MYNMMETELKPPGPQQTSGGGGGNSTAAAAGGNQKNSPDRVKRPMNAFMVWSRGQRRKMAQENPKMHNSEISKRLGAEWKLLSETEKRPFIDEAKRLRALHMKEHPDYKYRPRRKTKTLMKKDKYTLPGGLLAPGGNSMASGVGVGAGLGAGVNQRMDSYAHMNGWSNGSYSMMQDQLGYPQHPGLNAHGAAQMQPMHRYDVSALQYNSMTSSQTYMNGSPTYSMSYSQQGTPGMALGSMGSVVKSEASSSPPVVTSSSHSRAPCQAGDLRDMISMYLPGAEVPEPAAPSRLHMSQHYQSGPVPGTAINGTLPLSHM

Assay [1] addresses T1, GST-fused Grg5 (UniProt P63002).
T1 sequence: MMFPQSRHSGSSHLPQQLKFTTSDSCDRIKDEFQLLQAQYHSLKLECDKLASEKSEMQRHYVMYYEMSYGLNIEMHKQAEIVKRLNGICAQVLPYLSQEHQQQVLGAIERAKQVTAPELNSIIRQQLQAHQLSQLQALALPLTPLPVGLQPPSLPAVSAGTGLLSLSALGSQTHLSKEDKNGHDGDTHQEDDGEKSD
The assay is described as follows: pull-down; data not shown: amounts of radiolabelled Sox2 pulled down by GST-Grg1 and GST-Grg5 compared.

The target of assay [2] is T1, GST-fused Grg5. As to the kind of experiment: pull-down; GST-Grg1 or GST-Grg5 from lysed BL21 E. coli incubated with S^35-labelled in vitro translated Sox2 proteins; pulled down with Glutathione-sepharose 4B beads; PAGE gel on a phosphorimager.
Another assay has as its target GST-fused Grg1 (UniProt Q62440). The assay is described as above.
Assay [3] addresses T2, MYC-Grg5 (in COS-7 cells) (UniProt P63002).
T2 sequence: T1 sequence
The assay is described as follows: co-IP; COS-7 cells co-transfected with MYC-Grg5 and WT Sox2 or Sox2^M203–209; 1 mM DSP cross-linker for 30 min; MYC antibody-conjugated beads; blot with anti-Sox2.

In assay [4] the target is T3, MYC-tagged Grg5 (in human neural stem cells) (UniProt P63002).
T3 sequence: T1 sequence
The assay is described as follows: co-IP; human ReNcell VM NSCs transfected with MYC-tagged Grg3 or Grg5; cells treated with 1 mM DSP cross-linker for 30 min; MYC antibody-conjugated beads; blot with anti-Sox2 for endogenous Sox2.

In a further assay the target is MYC-tagged Grg3 (UniProt Q08122). The description is as above.

These are yes or no findings as the source states them, for the method shown. In cells and extracts the contact can be indirect. Some entries that bind do so weakly or less than the wild type. For part of these data: Sequences can lack the tags named with a protein.

For “radiolabelled Sox2 (in vitro translated) (from UniProt P48432 1-319)”, the binding result with GST-fused Grg5 [1], with GST-fused Grg5 [2] and with GST-fused Grg1 was “binds” throughout.

On to “WT Sox2 (transfected, COS-7 cells) (from UniProt P48432 1-319)”, for which the binding entry in assay [3] is reported as “binds”.

Turning to “Sox2 (endogenous, human neural stem cells) (from UniProt P48431 1-317)”, the binding entry (in assay [4]; with MYC-tagged Grg3) was “binds” in each case.
